The results in this text go back to article PMC2974636.

Sequences of proteins named here, by UniProt entry; tags and fusion partners are left off.
UniProt O75923: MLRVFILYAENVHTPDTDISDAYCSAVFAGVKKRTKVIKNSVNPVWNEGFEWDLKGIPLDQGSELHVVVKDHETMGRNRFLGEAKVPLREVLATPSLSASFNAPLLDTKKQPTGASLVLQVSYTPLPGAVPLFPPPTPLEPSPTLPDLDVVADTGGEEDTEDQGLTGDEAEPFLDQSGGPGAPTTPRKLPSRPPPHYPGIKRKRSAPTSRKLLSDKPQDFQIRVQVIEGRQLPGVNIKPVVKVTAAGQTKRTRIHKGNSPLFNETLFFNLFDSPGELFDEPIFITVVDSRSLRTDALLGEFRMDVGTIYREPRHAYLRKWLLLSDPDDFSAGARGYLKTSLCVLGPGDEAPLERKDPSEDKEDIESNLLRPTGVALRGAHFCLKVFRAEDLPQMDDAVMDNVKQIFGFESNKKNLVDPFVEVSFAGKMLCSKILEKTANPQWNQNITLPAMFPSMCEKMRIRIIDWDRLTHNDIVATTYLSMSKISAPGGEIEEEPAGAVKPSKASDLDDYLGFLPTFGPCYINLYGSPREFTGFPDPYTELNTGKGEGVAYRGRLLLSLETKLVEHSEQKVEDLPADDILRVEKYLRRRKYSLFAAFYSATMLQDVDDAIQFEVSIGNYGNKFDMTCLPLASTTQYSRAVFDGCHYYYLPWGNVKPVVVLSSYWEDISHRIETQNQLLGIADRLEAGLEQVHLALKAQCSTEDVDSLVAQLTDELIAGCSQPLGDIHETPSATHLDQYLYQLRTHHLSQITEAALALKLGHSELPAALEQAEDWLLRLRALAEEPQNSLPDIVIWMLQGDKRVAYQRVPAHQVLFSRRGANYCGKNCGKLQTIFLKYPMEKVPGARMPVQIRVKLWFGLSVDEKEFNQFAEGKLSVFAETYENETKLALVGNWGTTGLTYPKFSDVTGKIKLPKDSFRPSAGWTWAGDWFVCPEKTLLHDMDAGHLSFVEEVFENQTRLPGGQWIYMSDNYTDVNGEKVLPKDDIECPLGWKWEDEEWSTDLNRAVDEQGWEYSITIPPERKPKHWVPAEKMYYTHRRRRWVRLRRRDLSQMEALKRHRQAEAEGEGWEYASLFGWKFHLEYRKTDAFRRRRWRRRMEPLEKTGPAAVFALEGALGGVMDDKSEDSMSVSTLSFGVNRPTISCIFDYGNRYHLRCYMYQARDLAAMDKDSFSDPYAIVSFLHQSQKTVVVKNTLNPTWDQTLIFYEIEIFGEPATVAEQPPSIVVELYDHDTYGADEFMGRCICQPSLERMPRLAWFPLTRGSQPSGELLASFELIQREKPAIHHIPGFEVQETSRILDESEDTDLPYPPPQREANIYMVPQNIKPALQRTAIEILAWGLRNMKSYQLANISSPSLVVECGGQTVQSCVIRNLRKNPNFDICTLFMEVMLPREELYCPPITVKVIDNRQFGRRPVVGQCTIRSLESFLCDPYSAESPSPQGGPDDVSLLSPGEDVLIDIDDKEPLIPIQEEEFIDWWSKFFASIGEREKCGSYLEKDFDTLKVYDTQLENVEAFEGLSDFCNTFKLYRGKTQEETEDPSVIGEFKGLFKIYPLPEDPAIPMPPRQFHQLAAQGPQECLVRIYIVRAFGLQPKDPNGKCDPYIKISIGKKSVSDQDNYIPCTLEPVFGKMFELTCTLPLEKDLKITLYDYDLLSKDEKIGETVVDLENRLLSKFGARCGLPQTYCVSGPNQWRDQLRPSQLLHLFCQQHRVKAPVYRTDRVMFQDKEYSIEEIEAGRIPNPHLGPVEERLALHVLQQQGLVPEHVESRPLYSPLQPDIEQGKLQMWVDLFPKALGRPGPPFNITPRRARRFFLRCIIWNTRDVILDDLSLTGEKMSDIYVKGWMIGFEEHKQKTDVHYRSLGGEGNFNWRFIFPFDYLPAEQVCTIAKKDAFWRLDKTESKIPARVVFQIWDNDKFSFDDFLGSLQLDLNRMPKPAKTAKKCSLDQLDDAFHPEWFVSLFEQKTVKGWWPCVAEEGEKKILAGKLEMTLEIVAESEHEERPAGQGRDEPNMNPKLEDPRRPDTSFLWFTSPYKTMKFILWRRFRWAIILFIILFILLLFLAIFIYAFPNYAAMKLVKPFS
UniProt Q9ESD7: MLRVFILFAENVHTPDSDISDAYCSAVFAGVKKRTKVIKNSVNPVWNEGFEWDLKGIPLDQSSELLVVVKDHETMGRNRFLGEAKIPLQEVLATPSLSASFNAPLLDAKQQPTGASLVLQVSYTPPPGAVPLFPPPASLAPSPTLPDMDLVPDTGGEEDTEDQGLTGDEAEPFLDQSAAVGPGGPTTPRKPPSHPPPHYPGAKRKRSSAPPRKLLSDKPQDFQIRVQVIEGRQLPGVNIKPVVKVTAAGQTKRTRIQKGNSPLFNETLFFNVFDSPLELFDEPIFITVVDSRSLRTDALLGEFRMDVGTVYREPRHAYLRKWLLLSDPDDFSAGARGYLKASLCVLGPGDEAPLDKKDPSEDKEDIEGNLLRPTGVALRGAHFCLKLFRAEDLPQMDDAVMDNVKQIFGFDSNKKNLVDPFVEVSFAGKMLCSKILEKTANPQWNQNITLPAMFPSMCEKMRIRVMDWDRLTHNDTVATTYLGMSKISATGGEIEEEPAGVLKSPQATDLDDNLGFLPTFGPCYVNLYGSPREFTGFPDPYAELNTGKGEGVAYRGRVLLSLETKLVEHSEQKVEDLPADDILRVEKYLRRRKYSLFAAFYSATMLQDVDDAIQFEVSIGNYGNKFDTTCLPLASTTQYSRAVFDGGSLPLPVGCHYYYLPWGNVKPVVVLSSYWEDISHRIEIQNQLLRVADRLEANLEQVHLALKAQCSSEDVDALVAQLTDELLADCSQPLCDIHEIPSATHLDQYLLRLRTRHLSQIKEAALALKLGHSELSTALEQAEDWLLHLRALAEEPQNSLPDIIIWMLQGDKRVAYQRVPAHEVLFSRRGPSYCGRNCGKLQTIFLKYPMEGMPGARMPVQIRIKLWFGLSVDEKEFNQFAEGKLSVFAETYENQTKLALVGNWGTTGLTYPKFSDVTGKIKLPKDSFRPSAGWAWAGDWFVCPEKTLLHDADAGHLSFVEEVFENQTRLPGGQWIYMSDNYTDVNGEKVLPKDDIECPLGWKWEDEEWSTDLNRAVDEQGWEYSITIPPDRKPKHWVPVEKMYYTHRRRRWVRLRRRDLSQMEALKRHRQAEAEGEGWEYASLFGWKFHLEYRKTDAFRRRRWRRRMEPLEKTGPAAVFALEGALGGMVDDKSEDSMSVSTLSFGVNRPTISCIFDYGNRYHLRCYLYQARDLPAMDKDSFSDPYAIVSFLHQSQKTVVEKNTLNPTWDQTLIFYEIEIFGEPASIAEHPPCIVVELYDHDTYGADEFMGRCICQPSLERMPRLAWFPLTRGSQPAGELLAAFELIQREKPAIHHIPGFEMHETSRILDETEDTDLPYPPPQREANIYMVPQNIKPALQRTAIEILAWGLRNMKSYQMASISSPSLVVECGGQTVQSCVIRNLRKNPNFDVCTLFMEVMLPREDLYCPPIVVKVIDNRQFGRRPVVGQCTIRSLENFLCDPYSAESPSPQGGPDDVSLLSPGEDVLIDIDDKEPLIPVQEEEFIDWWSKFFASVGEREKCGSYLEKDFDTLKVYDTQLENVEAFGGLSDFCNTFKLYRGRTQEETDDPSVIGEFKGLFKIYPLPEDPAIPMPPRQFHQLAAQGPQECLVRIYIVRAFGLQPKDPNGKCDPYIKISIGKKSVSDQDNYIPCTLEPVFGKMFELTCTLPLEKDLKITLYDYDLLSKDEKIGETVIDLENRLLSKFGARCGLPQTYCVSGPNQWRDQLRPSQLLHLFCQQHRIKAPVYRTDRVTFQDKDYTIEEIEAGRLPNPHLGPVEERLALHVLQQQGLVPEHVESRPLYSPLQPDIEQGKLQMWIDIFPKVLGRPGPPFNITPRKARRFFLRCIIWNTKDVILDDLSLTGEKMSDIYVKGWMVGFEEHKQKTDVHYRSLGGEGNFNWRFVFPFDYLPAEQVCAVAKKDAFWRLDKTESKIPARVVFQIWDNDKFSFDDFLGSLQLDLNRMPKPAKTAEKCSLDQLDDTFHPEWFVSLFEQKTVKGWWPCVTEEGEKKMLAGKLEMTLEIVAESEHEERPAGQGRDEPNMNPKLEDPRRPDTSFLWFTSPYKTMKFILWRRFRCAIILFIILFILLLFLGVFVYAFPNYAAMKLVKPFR
UniProt P07356: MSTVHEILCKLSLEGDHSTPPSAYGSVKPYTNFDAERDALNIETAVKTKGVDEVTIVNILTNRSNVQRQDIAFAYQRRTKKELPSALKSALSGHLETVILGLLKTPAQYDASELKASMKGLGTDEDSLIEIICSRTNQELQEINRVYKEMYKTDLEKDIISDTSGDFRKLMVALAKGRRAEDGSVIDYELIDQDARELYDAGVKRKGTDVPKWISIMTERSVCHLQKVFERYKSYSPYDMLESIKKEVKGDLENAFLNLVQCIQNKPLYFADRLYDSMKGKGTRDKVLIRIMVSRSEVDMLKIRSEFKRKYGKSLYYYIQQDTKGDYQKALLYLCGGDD
UniProt Q69ZN7: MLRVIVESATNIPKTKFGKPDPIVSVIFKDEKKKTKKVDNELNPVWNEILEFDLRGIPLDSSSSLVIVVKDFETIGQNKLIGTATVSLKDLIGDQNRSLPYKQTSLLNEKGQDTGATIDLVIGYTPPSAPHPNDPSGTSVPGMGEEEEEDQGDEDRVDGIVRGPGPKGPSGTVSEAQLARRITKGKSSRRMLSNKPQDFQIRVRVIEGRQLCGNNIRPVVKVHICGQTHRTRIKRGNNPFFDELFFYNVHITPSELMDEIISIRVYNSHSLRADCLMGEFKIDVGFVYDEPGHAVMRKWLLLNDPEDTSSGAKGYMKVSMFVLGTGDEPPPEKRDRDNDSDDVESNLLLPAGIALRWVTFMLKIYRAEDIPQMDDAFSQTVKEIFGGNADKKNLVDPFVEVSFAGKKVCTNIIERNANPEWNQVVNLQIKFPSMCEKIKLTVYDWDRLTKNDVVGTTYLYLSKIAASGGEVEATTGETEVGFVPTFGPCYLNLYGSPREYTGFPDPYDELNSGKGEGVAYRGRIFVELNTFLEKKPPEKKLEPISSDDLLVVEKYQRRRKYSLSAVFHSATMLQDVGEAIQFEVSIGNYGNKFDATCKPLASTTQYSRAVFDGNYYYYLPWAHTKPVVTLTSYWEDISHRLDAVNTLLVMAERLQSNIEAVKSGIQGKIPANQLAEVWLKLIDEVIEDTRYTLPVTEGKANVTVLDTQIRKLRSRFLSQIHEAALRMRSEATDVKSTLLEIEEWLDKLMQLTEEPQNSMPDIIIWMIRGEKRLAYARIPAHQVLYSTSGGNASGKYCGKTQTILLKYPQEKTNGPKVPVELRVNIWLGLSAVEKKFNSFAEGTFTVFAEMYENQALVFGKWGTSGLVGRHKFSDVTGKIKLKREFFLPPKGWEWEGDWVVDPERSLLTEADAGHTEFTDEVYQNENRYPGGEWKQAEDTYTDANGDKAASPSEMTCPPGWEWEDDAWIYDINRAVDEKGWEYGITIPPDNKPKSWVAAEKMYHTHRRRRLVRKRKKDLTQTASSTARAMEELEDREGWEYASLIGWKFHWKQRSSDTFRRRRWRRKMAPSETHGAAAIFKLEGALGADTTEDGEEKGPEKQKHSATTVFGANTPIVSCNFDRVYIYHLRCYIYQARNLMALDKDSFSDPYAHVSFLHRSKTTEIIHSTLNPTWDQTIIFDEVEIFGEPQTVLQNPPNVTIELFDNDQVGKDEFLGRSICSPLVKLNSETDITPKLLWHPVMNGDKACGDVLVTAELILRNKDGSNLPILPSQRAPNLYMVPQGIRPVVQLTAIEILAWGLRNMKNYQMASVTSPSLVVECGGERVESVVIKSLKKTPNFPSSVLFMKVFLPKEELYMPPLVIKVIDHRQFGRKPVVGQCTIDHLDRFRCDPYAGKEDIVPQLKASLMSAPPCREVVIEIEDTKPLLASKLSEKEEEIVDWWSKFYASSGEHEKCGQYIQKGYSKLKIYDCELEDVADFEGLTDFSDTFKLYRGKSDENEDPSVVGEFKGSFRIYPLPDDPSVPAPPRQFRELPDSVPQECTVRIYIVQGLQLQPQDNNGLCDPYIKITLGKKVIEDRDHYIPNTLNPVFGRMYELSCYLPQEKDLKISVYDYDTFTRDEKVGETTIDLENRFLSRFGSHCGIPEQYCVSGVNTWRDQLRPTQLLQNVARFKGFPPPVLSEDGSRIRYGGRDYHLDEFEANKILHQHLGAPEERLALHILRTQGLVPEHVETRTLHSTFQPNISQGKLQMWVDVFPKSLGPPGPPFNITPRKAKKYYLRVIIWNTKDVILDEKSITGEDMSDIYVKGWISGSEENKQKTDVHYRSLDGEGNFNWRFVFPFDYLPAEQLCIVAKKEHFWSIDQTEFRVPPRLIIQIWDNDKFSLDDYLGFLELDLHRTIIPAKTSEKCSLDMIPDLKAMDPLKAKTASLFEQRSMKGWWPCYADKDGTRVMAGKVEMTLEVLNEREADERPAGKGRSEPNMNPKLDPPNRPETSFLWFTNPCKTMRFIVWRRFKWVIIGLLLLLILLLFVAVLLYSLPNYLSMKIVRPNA

Read-outs that look alike come from different tables or passages of the source. No constants are given. Whether binding was seen depends on the method and setting. In cells and extracts the contact can be indirect. Some results given as binding are weak or reduced against the parent protein; the word gives no strength.

Experiment [1] addresses Recombinant dysferlin (transiently transfected in U2OS cells) (UniProt O75923). Briefly: co-IP; U2OS cells (endogenous myoferlin) transiently transfected with dysferlin cDNA; IP with HCAb F4 and H7; IP and non-bound fractions on western blot for dysferlin and myoferlin; wild-type and mock cells as controls.
Experiment [2] addresses Dysferlin (endogenous; source of the IP not stated: IM2 myoblasts, IM2 myotubes or human skeletal muscle) (not stated (endogenous in mouse IM2 cells or human skeletal muscle)) (UniProt Q9ESD7). The experiment can be described thus: co-IP; data not shown; western blot of dysferlin HCAb IP fractions; source of the samples not stated. In general terms: Immunoblotting shows a protein as a band on a membrane.

Experiment [3] concerns the target T1, Vinculin (endogenous, mouse IM2 cells) (mouse (endogenous in IM2)) (UniProt Q64727).
T1 sequence: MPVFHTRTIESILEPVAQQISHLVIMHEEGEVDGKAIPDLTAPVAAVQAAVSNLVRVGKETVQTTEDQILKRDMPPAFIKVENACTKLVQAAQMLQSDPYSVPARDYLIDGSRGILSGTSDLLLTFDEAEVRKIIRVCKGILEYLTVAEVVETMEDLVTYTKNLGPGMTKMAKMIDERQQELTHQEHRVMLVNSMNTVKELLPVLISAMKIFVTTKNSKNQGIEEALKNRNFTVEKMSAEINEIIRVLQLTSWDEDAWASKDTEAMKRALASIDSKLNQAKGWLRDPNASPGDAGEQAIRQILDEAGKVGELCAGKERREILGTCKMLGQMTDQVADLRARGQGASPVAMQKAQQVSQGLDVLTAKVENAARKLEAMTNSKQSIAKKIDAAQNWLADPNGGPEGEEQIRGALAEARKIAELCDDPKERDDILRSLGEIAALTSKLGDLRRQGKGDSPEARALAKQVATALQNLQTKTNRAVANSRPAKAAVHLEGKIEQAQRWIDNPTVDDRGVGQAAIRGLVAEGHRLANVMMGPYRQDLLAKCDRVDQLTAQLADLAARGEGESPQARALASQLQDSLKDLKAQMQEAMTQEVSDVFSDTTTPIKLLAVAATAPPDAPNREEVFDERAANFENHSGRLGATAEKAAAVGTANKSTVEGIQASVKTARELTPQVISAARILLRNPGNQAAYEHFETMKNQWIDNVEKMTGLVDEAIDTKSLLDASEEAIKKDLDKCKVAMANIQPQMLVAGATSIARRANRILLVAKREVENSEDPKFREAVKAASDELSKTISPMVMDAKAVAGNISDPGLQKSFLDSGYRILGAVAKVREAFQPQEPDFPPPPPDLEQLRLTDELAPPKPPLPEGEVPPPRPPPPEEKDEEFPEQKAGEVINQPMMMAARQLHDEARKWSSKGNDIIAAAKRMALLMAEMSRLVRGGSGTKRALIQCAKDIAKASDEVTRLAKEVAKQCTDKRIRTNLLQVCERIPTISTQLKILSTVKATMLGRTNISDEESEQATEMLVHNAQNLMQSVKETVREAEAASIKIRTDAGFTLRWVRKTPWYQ
Briefly: co-IP; IM2 myotube lysate; IP with conventional antibodies against vinculin (IgG control against VSV); IP and non-bound fractions on western blot for dysferlin.

For experiment [4], the target named is Dysferlin (endogenous, mouse IM2 myoblasts and myotubes) (mouse (endogenous in IM2)) (UniProt Q9ESD7). The experiment can be described thus: co-IP; endogenous dysferlin immunoprecipitated with HCAb F4 or H7 (control HCAb 3A) and protein A Sepharose from IM2 myoblast and myotube lysates (Triton, CHAPS or SDS buffer); western blot of the IP fractions.
Experiment [5] addresses Dysferlin (endogenous; source of the IP not stated: IM2 myoblasts, IM2 myotubes or human skeletal muscle) (not stated (endogenous in mouse IM2 cells or human skeletal muscle)) (UniProt Q9ESD7). The experiment can be described thus: co-IP; dysferlin IP samples (HCAb) probed on western blot (Figure S2); source of the samples (IM2 myoblasts, IM2 myotubes or human skeletal muscle) not stated.

Experiment [6] addresses Dysferlin (endogenous, mouse IM2 myoblasts and myotubes) (mouse (endogenous in IM2)) (UniProt Q9ESD7). Briefly: co-IP; endogenous dysferlin immunoprecipitated with HCAb F4 or H7 (control HCAb 3A) and protein A Sepharose from IM2 myoblast and myotube lysates (Triton, CHAPS or SDS buffer); western blot of the IP fractions. The source holds these as a separate data set.

As to “Myoferlin (endogenous, U2OS cells) (from UniProt Q9NZM1 1-2061)”, the binding result in experiment [1] is given as “binds weakly”.
Turning to “ANXA2 (endogenous; source not stated) (from UniProt P07356 1-339)”, the binding entry in experiment [2] is listed as “binds”.
For the molecule “Dysferlin (endogenous, mouse IM2 myoblasts and myotubes) (from UniProt Q9ESD7 1-2090)”, in experiment [3], the binding entry is on record as “binds weakly”.
Take “Myoferlin (endogenous, mouse IM2 cells) (from UniProt Q69ZN7 1-2048)”: in experiment [4], the binding result was “binds”.
Take “AHNAK (endogenous; source of the IP samples not stated) (from UniProt E9Q616 1-5656)”: in experiment [5], the binding result is on record as “binds”.

B1: PARVB (endogenous; source not stated) (protein, UniProt Q9ES46 1-365)
chain: MSSAPPRSPTPRAPKMKKDESFLGKLGGTLARKKKTREVTDLQEEGKSAINSPMAPALVDIHPEDTQLEENEERTMIDPTSREDPKFKELVKVLLDWINDVLAEERIIVKQLEEDLYDGQVLQKLLEKLAHCKLNVAEVTQSEIGQKQKLQTVLEAVQDLLRPHGWPLRWNVDSIHGKNLVAILHLLVSLAMHFRAPIHLPEHVTVQVVVVRKREGLLHSSHISEELTTTTEIMMGRFERDAFDTLFDHAPDKLNLVKKSLITFVNKHLNKLNLEVTDLETQFADGVYLVLLLGLLEDYFVPLHNFYLTPDSFDQKVHNVAFAFELMLDGGLKKPKARPEDVVNLDLKSTLRVLYTLFTKYKDVE
Take B1: the binding result in experiment [2] is “binds”.

B2: Calpain 3 (endogenous, mouse IM2 cells) (protein, UniProt Q64691 1-821)
chain: MPTVISPTVAPRTGAEPRSPGPVPHPAQGKTTEAGGGHPSGIYSAIISRNFPIIGVKEKTFEQLRRKCLEKKVLYLDPEFPPDETSLFYSQKFPIQFVWKRPPEICENPRFIIGGANRTDICQGDLGDCWFLAAIACLTLNERLLFRVIPHDQSFTENYAGIFHFQFWRYGDWVDVVIDDCLPTYNNQLVFTKSNHRNEFWSALLEKAYAKLHGSYEALKGGNTTEAMEDFTGGVTEFFEIKDAPSDMYKIMRKAIERGSLMGCSIDDGTNMTYGTSPSGLNMGELIARMVRNMDNSLLRDSDLDPRGSDDRPSRTIVPVQYETRMACGLVKGHAYSVTGLEEALFKGEKVKLVRLRNPWGQVEWNGSWSDGWKDWSFVDKDEKARLQHQVTEDGEFWMSYDDFVYHFTKLEICNLTADALESDKLQTWTVSVNEGRWVRGCSAGGCRNFPDTFWTNPQYRLKLLEEDDDPEDSEVICSFLVALMQKNRRKDRKLGANLFTIGFAIYEVPKEMHGNKQHLQKDFFLYNASKARSKTYINMREVSQRFRLPPSEYVIVPSTYEPHQEGEFILRVFSEKRNLSEEAENTISVDRPVKKKKNKPIIFVSDRANSNKELGVDQEAEEGKDKAGPEKRGETPQPRPGHTDQESEEQQQFRNIFRQIAGDDMEICADELKNVLNTVVNKHKDLKTQGFTLESCRSMIALMDTDGSGRLNLQEFHHLWKKIKAWQKIFKHYDTDHSGTINSYEMRNAVNDAGFHLNSQLYDIITMRYADKHMNIDFDSFICCFVRLEGMFRAFNAFDKDGDGIIKLNVLEWLQLTMYA
In the case of B2, the binding result in experiment [6] is given as “binds”.

B3: Calpain 3 (endogenous; source of the IP samples not stated) (protein, UniProt Q64691 1-821)
chain: MPTVISPTVAPRTGAEPRSPGPVPHPAQGKTTEAGGGHPSGIYSAIISRNFPIIGVKEKTFEQLRRKCLEKKVLYLDPEFPPDETSLFYSQKFPIQFVWKRPPEICENPRFIIGGANRTDICQGDLGDCWFLAAIACLTLNERLLFRVIPHDQSFTENYAGIFHFQFWRYGDWVDVVIDDCLPTYNNQLVFTKSNHRNEFWSALLEKAYAKLHGSYEALKGGNTTEAMEDFTGGVTEFFEIKDAPSDMYKIMRKAIERGSLMGCSIDDGTNMTYGTSPSGLNMGELIARMVRNMDNSLLRDSDLDPRGSDDRPSRTIVPVQYETRMACGLVKGHAYSVTGLEEALFKGEKVKLVRLRNPWGQVEWNGSWSDGWKDWSFVDKDEKARLQHQVTEDGEFWMSYDDFVYHFTKLEICNLTADALESDKLQTWTVSVNEGRWVRGCSAGGCRNFPDTFWTNPQYRLKLLEEDDDPEDSEVICSFLVALMQKNRRKDRKLGANLFTIGFAIYEVPKEMHGNKQHLQKDFFLYNASKARSKTYINMREVSQRFRLPPSEYVIVPSTYEPHQEGEFILRVFSEKRNLSEEAENTISVDRPVKKKKNKPIIFVSDRANSNKELGVDQEAEEGKDKAGPEKRGETPQPRPGHTDQESEEQQQFRNIFRQIAGDDMEICADELKNVLNTVVNKHKDLKTQGFTLESCRSMIALMDTDGSGRLNLQEFHHLWKKIKAWQKIFKHYDTDHSGTINSYEMRNAVNDAGFHLNSQLYDIITMRYADKHMNIDFDSFICCFVRLEGMFRAFNAFDKDGDGIIKLNVLEWLQLTMYA
Consider B3, for which the binding result in experiment [5] is recorded as “binds”.

B4: Vinculin (endogenous, mouse IM2 cells) (protein, UniProt Q64727 1-1066)
chain: MPVFHTRTIESILEPVAQQISHLVIMHEEGEVDGKAIPDLTAPVAAVQAAVSNLVRVGKETVQTTEDQILKRDMPPAFIKVENACTKLVQAAQMLQSDPYSVPARDYLIDGSRGILSGTSDLLLTFDEAEVRKIIRVCKGILEYLTVAEVVETMEDLVTYTKNLGPGMTKMAKMIDERQQELTHQEHRVMLVNSMNTVKELLPVLISAMKIFVTTKNSKNQGIEEALKNRNFTVEKMSAEINEIIRVLQLTSWDEDAWASKDTEAMKRALASIDSKLNQAKGWLRDPNASPGDAGEQAIRQILDEAGKVGELCAGKERREILGTCKMLGQMTDQVADLRARGQGASPVAMQKAQQVSQGLDVLTAKVENAARKLEAMTNSKQSIAKKIDAAQNWLADPNGGPEGEEQIRGALAEARKIAELCDDPKERDDILRSLGEIAALTSKLGDLRRQGKGDSPEARALAKQVATALQNLQTKTNRAVANSRPAKAAVHLEGKIEQAQRWIDNPTVDDRGVGQAAIRGLVAEGHRLANVMMGPYRQDLLAKCDRVDQLTAQLADLAARGEGESPQARALASQLQDSLKDLKAQMQEAMTQEVSDVFSDTTTPIKLLAVAATAPPDAPNREEVFDERAANFENHSGRLGATAEKAAAVGTANKSTVEGIQASVKTARELTPQVISAARILLRNPGNQAAYEHFETMKNQWIDNVEKMTGLVDEAIDTKSLLDASEEAIKKDLDKCKVAMANIQPQMLVAGATSIARRANRILLVAKREVENSEDPKFREAVKAASDELSKTISPMVMDAKAVAGNISDPGLQKSFLDSGYRILGAVAKVREAFQPQEPDFPPPPPDLEQLRLTDELAPPKPPLPEGEVPPPRPPPPEEKDEEFPEQKAGEVINQPMMMAARQLHDEARKWSSKGNDIIAAAKRMALLMAEMSRLVRGGSGTKRALIQCAKDIAKASDEVTRLAKEVAKQCTDKRIRTNLLQVCERIPTISTQLKILSTVKATMLGRTNISDEESEQATEMLVHNAQNLMQSVKETVREAEAASIKIRTDAGFTLRWVRKTPWYQ
In the case of B4, in experiment [6], the binding entry was “binds”.
